This is one part of the list. Shown are side measurements of this screen, not its main read-out; they come without a call. Most of these compounds were active or inconclusive in the main read-out, so they are no random draw. Words in brackets tell the shape of the fitted curve; partial curves, single points and poor fits give uncertain potencies.

The assay in a line: qHTS Assay to Find Inhibitors of Chronic Active B-Cell Receptor Signaling. Particulars: ABC-DLBCL IkBa-CBG/CBR reporter, luminescence ratio (green luciferase fused to IkBa over red control in TMD8 lymphoma cells), 4 h. The procedure, abridged: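 TMD8 human ABC-DLBCL cells with doxycycline-inducible IκBα–green luciferase fusion and unfused red luciferase, in 0.5% FBS medium; compounds up to 46 uM, 4 h at 37C. Green/red luminescence ratio, filter-overlap corrected, fitted to concentration-response curves.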

Where [1] appears, read: measured here: CBR red luminescence, cell number.
[2] abbreviates: measured here: IkBa-CBG green luminescence.

As to `CCOc1ccc(N(CC)C(=O)c2nn(-c3ccc(OC)cc3)c(=O)c3c2c2ccccc2n3C)cc1`, the AC50 under setting [1] is 0.398 µM [rising, full curve, poor fit]. On the same count and under the same terms, under `COc1ccc(NC(=O)NS(=O)(=O)c2ccc(C)cc2)cc1OC` stands 20.6 µM [rising, single point]; under `Cc1cccc(OCCOCCSc2ncccn2)c1`, 20.6 µM [rising, partial curve, poor fit]; under `Cc1[nH]c2ccccc2c1C(Nc1nccs1)c1ccncc1` (configuration not stated), 29.1 µM [falling, single point]. As for `CCCCOC(=O)c1ccc(-c2ccc(/C=N/NC(=S)NCC)o2)cc1`, the AC50 under setting [1] was 1.64 µM [falling, partial curve, poor fit]. With `Cc1nc2nc(SCc3ccccc3)[nH]n2c(=O)c1CCC(C)C`, the AC50 under setting [1] is 10 µM [falling, partial curve]. Regarding `CCn1c(S(=O)(=O)O)nc2ccccc21`, the AC50 under setting [1] was 6.31 µM [falling, single point]. Regarding `O=C(CSCc1ccc(Cl)cc1)c1ccco1`, the half-maximal activity concentration (AC50) under setting [1] is 0.708 µM [rising, full curve, poor fit].

Turning to `CCCNC(=O)Nc1nc2ccccc2s1`, the concentration at half-maximal activity (AC50) under setting [1] is 7.94 µM [falling, partial curve, poor fit].

`COc1cc2c(cc1OC)C(C)N(C(=O)c1cc3c(C)cc(C)cc3[nH]1)CC2` (configuration not stated): the AC50 under setting [1] is 35.5 µM [falling, single point]. Same read-out and setting: with `CC(C)c1ccc(NC(=O)CN2C(=O)NC3(CCCC3)C2=O)cc1` the figure was 14.1 µM [rising, single point]; with `Cc1cc(C)cc(NS(=O)(=O)Cc2ccccc2)c1`, 28.2 µM [rising, partial curve, poor fit].

In the case of `O=C(CSc1nc2ccccc2c(=O)n1-c1ccccc1)NCc1ccco1`, under setting [1], the half-maximal activity concentration (AC50) was 20 µM [falling, partial curve, poor fit]. The same measure, in the same setting: under `COc1cc(OC)cc(C(=O)NCC(=O)OCC(=O)NCc2ccco2)c1` stands 20.6 µM [rising, single point]. Same read-out and setting: under `COc1ccc(CN(Cc2cccn2C)C(=O)c2cc3cc(OC)ccc3[nH]2)cc1` stands 15.8 µM [falling, single point]; under `Fc1cccc(CSc2nc3ncccc3[nH]2)c1`, 6.31 µM [rising, single point].

`Cc1ccc(C(=O)COC(=O)C2CC(=O)N(c3nc(-c4ccccc4)cs3)C2)cc1` (configuration not stated): the concentration at half-maximal activity (AC50) under setting [1] is 0.00461 µM [rising, full curve, poor fit].

With `CCCC(=O)N(c1ccc(C(=O)O)cc1)c1nc(-c2ccccc2)c(C)s1`, under setting [1], the concentration at half-maximal activity (AC50) was 1.41 µM [falling, full curve]. In the case of `C[C@H](CO)N1C[C@H](C)[C@@H](CN(C)C(=O)Nc2ccccc2)Oc2ccc(NC(=O)Nc3ccc4c(c3)OCO4)cc2C1=O`, the half-maximal activity concentration (AC50) under setting [1] was 20.6 µM [rising, single point].

Consider `Cc1cc(C(=O)NCCc2ccccc2)ccc1[N+](=O)[O-]`, for which the AC50 under setting [1] was 13 µM [falling, partial curve, poor fit]. `COc1ccc(C(=O)NCCN2C(=O)S/C(=C\c3cccnc3)C2=O)cc1[N+](=O)[O-]`: the concentration at half-maximal activity (AC50) under setting [1] was 5.62 µM [rising, single point]. The same measure, in the same setting: with `CNC1(C(N)=O)CCNCC1` the figure was 0.1 µM [rising, full curve, poor fit]. On the same count and under the same terms, with `CC(=O)c1ccc(-n2c(C)ccc2-c2ccccc2)cc1` the figure was 0.206 µM [falling, full curve, poor fit]; with `c1csc(CSc2nc3ccccc3s2)c1`, 2.24 µM [rising, full curve]. As for `COc1ccc(/C=C/c2noc(-c3ccccc3O)n2)cc1`, the half-maximal activity concentration (AC50) under setting [1] was 5.17 µM [falling, full curve]. `O=C(OCc1cc2ccccc2[nH]c1=O)C1CCCCC1`: the concentration at half-maximal activity (AC50) under setting [1] was 11.2 µM [rising, partial curve, poor fit]. Still for that read-out and setting: with `NS(=O)(=O)c1ccc(-c2cccc(/C=C3\SC(=O)NC3=O)c2)cc1` the figure was 7.08 µM [falling, partial curve, poor fit]; with `Cn1c(=O)c2c(ncn2CC(=O)OCC(=O)NCc2ccc(Cl)cc2)n(C)c1=O`, 13 µM [falling, partial curve, poor fit]; with `CCCSC1=C(C#N)C(c2ccccc2OCC)CC(=O)N1` (configuration not stated), 6.51 µM [falling, partial curve, poor fit]. Same read-out and setting: under `Cc1nn(-c2ncc(C(F)(F)F)cc2Cl)c(=O)n1-c1cccc(Cl)c1` stands 20.6 µM [rising, single point]; under `N#Cc1c(-c2ccccc2)c(-c2ccccc2)nn(CC(=O)NNC(=O)Nc2ccccc2)c1=O`, 2.82 µM [rising, partial curve, poor fit]. Still for that read-out and setting: with `Cc1ccc(-c2ccc(/C=N/O)o2)cc1[N+](=O)[O-]` the figure was 2.51 µM [rising, full curve]. For `CCc1nnc(N/N=C/c2cc(Br)c(O)cc2O)n1N`, under setting [1], the AC50 was 35.5 µM [falling, single point]. On the same count and under the same terms, with `CCC(=Nc1ccccc1O)C1=C(O)CC(c2ccccc2)CC1=O` (configuration not stated) the figure was 11.2 µM [falling, partial curve]; with `CCN(CC)Cc1c(O)ccc2occ(C(=O)c3ccc(OC)cc3)c12`, 32.6 µM [falling, single point]. With `Cc1ccc(CSc2nc3ccccc3cc2C=O)cc1`, the half-maximal activity concentration (AC50) reads like this: under setting [1], 3.16 µM [rising, full curve]; under setting [2], 3.16 µM [falling, full curve, poor fit]. On to `Cc1ccccc1OCCn1c(=S)[nH]c2ccccc21`, for which the AC50 under setting [1] was 5.62 µM [rising, partial curve, poor fit]. With `CCOc1cc(C(=O)Nc2ccc3c4c(cccc24)C(=O)N3CC)cc(OCC)c1OCC`, the AC50 under setting [1] is 0.00461 µM [rising, full curve, poor fit]. Same read-out and setting: under `Cc1cccc(C)c1-n1cccc1/C=C1\SC(=S)N(c2cccc(C(=O)O)c2)C1=O` stands 7.94 µM [falling, partial curve, poor fit]; under `COc1ccc(NC(=O)c2cc(-c3cccs3)on2)c(OC)c1`, 3.16 µM [rising, single point]. The same measure, in the same setting: under `COC(=O)c1ccc(C(=O)OC)c(NC(=O)CN2CCCCC2)c1` stands 0.1 µM [rising, full curve, poor fit]; under `CC(C)CNS(=O)(=O)c1ccc(C(=O)Nc2ccc3c(c2)OCO3)cc1`, 12.6 µM [falling, partial curve, poor fit]; under `FC(F)Sc1ccc(NC(=S)NC2CCCC2)cc1`, 11.2 µM [falling, single point]. Regarding `Cc1ccc(NCCC(=O)c2cccs2)cc1C`, the AC50 under setting [1] was 35.5 µM [falling, single point]. On to `O=C(Nc1ccc2c(c1)OCO2)C1CCN(C(=O)CSc2ncnc3ccccc23)CC1`, for which, under setting [1], the AC50 was 22.4 µM [falling, single point]. Still for that read-out and setting: with `COc1ccc(C(C)=NNc2ccc([N+](=O)[O-])cc2S(=O)(=O)Nc2ccccc2C(=O)O)c(OC)c1` the figure was 23.1 µM [rising, single point]. On the same count and under the same terms, with `CC(/C=N/NC(=O)c1ccccn1)=C\c1ccco1` the figure was 11.2 µM [falling, partial curve, poor fit]. Still for that read-out and setting: with `CCOc1ccc(-c2cccc(NS(=O)(=O)c3ccc([N+](=O)[O-])cc3)c2)nn1` the figure was 2.31 µM [falling, single point]; with `O=C(Nc1ccc(NC(=O)c2cccs2)cc1)c1ccc2ccccc2c1`, 11.2 µM [rising, partial curve, poor fit]. Consider `Cc1ccc(S(=O)(=O)NCC2NCCc3ccccc32)cc1` (configuration not stated), for which, under setting [1], the AC50 is 0.794 µM [falling, full curve].

`Cn1c(N)c(C(=O)COC(=O)c2ccccc2C(=O)c2ccc(Cl)cc2)c(=O)n(C)c1=O`: the concentration at half-maximal activity (AC50) under setting [2] was 1.16 µM [rising, full curve, poor fit]. Consider `O=c1c2ccccc2sn1-c1ccccc1`, for which the concentration at half-maximal activity (AC50) runs as follows: under setting [1], 23.1 µM [falling, single point]; under setting [2], 25.9 µM [rising, single point]. For the compound `Cc1nc(-c2ccccc2)cn2c1nc1ccccc12`, the concentration at half-maximal activity (AC50) reads like this: under setting [1], 4.11 µM [falling, full curve]; under setting [2], 20.6 µM [rising, partial curve, poor fit]. For `COc1cccc(C2=NOC(C(=O)Nc3ccc4c(c3)OCO4)C2)c1OC` (configuration not stated), the AC50 under setting [1] is 7.08 µM [falling, partial curve]. On the same count and under the same terms, with `COCCCNc1ncnc2c1cnn2-c1ccc(F)cc1` the figure was 14.1 µM [falling, partial curve]; with `Cn1cccc1C(=O)C(=O)Nc1ccccc1`, 10 µM [falling, partial curve, poor fit]. For the compound `COc1ccc(N=C2S/C(=C\c3ccc(N4CCOCC4)o3)C(=O)N2CCc2c[nH]c3ccccc23)cc1`, the half-maximal activity concentration (AC50) by setting is: under setting [1], 35.5 µM [rising, single point]; under setting [2], 17.8 µM [falling, single point]. Consider `C/C(=N\NC(=O)COc1ccccc1F)c1cc2ccccc2o1`, for which the AC50 under setting [1] was 0.517 µM [rising, full curve, poor fit]. Same read-out and setting: with `COc1cc(-c2nnc(CSc3nc4ccccc4s3)o2)cc(OC)c1OC` the figure was 35.5 µM [falling, single point]; with `Cc1[nH]nc(Nc2ccc(C(C)C)cc2)c1[N+](=O)[O-]`, 0.501 µM [rising, full curve, poor fit]; with `CCn1c(=O)c(C(=O)Nc2ncccc2C)c(O)c2ccccc21`, 7.94 µM [falling, partial curve, poor fit]. Regarding `COc1ccc(NC(=O)CC2C(=O)N(c3ccc(OC)cc3)C(=S)N2NC(=O)c2cccc(F)c2)cc1` (configuration not stated), under setting [1], the AC50 is 5.8 µM [rising, single point]. Regarding `Nc1c(C(=O)NCCN2CCOCC2)c2nc3ccccc3nc2n1CCc1ccccc1`, the AC50 under setting [1] was 35.5 µM [falling, single point].

The values are drawn from PubChem BioAssay AID493014 (National Center for Advancing Translational Sciences (NCATS), 2011).
